Test results: paper doi:10.1101/2020.08.12.247809
These are yes or no findings as the source states them, for the method shown. Some binding calls cover weakened binding; strength is not graded here. Where a sequence is shown, tags or fusion partners need not be part of it.

By UniProt entry, the sequences of proteins in these tests, tags left out. Residues count along the entry.
UniProt Q68FF0, residues 144-261: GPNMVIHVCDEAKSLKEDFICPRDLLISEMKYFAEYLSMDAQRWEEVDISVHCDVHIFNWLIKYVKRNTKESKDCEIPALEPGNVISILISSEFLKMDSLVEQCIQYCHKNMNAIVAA

Target: T1, GST-SMRT(1383-1467) (mouse) (UniProt Q9WU42)
T1 sequence: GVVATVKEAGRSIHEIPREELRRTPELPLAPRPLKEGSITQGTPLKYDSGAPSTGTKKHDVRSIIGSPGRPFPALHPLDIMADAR
Experiment: pull-down

“His6-KIAA1841(BTB) (from UniProt Q68FF0-1 144-261) (domain or fragment)” was tested. Which binding did it give?
Its binding is “binds”.
